In patent publication US20090233319A1 one finds binding data, which are given here for one molecule.

The target of this assay is T1, purified caspase-14 from human cornified cells (heterodimer of large subunit 17 KDa and small subunit 11 KDa) (human) (UniProt P31944).
T1 sequence (looked up) 1: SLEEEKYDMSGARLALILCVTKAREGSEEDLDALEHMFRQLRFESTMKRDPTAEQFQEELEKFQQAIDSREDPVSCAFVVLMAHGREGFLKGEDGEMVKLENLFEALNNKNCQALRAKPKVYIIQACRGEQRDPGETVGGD
T1 sequence (looked up) 2: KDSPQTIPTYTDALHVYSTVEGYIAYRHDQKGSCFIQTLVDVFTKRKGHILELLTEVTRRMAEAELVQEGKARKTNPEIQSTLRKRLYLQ
The assay is described as follows: inferred from inhibition of caspase-14 activity that was not recovered with extended incubation.

No constants are given. Whether binding was seen depends on the method and setting. Some results given as binding are weak or reduced against the parent protein; the word gives no strength.

B1: recombinant SCCA-1 (squamous cell carcinoma antigen 1) (protein, UniProt P29508 1-390, looked up)
chain: MNSLSEANTKFMFDLFQQFRKSKENNIFYSPISITSALGMVLLGAKDNTAQQIKKVLHFDQVTENTTGKAATYHVDRSGNVHHQFQKLLTEFNKSTDAYELKIANKLFGEKTYLFLQEYLDAIKKFYQTSVESVDFANAPEESRKKINSWVESQTNEKIKNLIPEGNIGSNTTLVLVNAIYFKGQWEKKFNKEDTKEEKFWPNKNTYKSIQMMRQYTSFHFASLEDVQAKVLEIPYKGKDLSMIVLLPNEIDGLQKLEEKLTAEKLMEWTSLQNMRETRVDLHLPRFKVEESYDLKDTLRTMGMVDIFNGDADLSGMTGSRGLVLSGVLHKAFVEVTEEGAEAAAATAVVGFGSSPTSTNEEFHCNHPFLFFIRQNKTNSILFYGRFSSP
Consider B1, for which the binding result is reported as “binds”.
